Results reported in the supplement of paper PMC10849652.
The list shows a part of the results. Residues, ends and D or L forms follow the SMILES beside them. *: point of attachment. Cbz = O=C(OCc1ccccc1)*

The chains behind the UniProt entries cited, without tags or fusion partners. Where a name states a change or a piece, a line headed by the entry shows the natural chain unless it says otherwise.
UniProt Q02094: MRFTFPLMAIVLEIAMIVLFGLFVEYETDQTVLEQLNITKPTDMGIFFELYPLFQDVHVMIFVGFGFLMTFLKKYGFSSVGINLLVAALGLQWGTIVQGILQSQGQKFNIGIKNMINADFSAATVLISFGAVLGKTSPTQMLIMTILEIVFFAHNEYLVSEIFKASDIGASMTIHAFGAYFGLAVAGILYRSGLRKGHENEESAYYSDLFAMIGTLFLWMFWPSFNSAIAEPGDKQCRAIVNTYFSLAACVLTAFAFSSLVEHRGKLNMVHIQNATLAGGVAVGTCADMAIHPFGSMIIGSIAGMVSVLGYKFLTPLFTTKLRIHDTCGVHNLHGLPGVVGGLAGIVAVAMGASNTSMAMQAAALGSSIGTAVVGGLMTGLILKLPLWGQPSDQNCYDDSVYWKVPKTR
UniProt Q9H0Z9: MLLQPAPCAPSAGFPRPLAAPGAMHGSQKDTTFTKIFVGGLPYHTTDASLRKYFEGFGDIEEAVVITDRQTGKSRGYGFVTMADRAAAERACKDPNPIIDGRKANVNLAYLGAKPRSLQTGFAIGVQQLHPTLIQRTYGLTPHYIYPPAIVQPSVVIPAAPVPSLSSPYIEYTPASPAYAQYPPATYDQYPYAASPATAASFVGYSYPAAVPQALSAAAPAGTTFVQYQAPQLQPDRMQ
UniProt O00287: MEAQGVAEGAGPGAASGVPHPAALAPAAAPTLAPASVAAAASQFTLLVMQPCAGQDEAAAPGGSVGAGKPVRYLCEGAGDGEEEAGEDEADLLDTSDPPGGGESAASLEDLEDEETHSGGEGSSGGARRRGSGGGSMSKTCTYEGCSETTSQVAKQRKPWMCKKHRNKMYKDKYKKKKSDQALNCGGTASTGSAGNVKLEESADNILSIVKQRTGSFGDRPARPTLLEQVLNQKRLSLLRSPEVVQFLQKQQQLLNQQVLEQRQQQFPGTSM
UniProt Q96TC7: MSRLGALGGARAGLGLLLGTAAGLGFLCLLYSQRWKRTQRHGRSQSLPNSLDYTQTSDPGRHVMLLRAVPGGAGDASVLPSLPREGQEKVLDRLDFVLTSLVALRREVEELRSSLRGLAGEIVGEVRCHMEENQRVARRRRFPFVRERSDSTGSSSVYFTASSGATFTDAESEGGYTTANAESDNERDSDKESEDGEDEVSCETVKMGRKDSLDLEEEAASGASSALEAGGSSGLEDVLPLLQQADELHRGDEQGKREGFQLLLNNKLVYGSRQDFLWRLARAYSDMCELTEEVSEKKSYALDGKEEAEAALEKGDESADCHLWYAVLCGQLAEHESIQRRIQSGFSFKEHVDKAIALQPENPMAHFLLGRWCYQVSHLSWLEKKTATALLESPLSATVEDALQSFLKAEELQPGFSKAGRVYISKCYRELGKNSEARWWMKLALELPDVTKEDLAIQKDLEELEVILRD
UniProt Q5TA31: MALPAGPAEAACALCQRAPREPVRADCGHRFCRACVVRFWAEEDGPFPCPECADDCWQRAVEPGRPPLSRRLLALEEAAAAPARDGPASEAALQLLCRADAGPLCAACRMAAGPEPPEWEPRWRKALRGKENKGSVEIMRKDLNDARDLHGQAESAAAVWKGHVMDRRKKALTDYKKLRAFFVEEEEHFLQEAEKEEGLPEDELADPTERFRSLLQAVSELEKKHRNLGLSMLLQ
UniProt Q9UKL0, whole entry, looked up: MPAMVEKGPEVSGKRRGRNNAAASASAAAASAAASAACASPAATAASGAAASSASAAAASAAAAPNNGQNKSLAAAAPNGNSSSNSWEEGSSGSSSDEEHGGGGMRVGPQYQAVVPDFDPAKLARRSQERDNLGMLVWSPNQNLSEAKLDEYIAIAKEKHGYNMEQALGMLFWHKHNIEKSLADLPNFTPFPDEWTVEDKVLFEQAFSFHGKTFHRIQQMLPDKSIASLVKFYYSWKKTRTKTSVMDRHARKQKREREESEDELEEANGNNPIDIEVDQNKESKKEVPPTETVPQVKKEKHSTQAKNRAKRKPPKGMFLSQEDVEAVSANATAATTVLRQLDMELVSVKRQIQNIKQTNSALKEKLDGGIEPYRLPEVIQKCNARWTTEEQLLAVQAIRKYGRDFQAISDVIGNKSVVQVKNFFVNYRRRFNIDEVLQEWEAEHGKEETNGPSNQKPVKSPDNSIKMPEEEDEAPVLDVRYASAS
UniProt O43353, whole entry, looked up: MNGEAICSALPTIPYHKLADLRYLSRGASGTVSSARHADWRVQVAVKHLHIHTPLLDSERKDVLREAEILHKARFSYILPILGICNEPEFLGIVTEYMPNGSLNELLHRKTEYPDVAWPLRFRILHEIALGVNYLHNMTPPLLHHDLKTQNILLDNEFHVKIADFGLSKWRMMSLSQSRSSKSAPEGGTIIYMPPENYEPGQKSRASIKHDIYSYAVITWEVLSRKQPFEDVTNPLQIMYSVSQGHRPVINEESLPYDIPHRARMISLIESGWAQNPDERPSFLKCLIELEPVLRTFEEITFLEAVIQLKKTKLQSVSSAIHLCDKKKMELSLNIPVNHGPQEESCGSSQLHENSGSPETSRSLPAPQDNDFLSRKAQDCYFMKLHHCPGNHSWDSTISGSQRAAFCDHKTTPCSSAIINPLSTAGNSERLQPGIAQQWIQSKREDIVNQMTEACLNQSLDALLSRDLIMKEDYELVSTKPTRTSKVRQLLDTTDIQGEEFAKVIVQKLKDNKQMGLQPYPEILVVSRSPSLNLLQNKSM

What was measured:
Test in all cases: log2 fold change, soluble protein after heating vs DMSO (PISA); higher = thermal stabilisation; K562 cells, 10 uM, 30 min; active = over 0.2 and 3.5 SD of the protein, either way, in both replicates (recomputed)
erlotinib = compound: C#Cc1cccc(Nc2ncnc3cc(OCCOC)c(OCCOC)cc23)c1 [erlotinib]
Procedure, shortened: (§1)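 Quantification of soluble protein used TMTpro 16plex LC-MS/MS, with channel sums equalised. Samples were the supernatant after 21,000xg for 90 min of pooled aliquots from K562 cells (2×10^6 cells/mL) treated with 10 μM compound for 30 min, heated for 3 min over 48°C-58°C, and extracted in PBS with 0.5% NP-40 at 4°C. Values, from duplicates, describe thermal stability against control samples on a log2 fold-change scale.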

[1] = compound: C/C(=N\NC(=O)C1=CC(=CC=C1)S(=O)(=O)N2CCOCC2)/C3=C(C=CC(=C3)Cl)O
Procedure, shortened: as §1

[2] = compound: C1=CC(=C(C=C1Cl)C2=NC3=NC=CN=C3C(=N2)NC4=CC=NC=C4)F
Procedure, shortened: as §1

[3] = compound: C1=CC(=CC=C1C2=NC3=C(N2)C=C(C=C3)C(=O)N)OC4=CC=C(C=C4)Cl
Procedure, shortened: as §1

[4] = compound: C1=CC2=C(C=CC(=C2)/C=C\3/C(=O)NC(=NCC4=CC=CS4)S3)N=C1
Procedure, shortened: as §1

[5] = compound: C1=CC2=NC=CN=C2C=C1/C=C/3\C(=O)NC(=O)S3
Procedure, shortened: as §1

[6] = compound: C1=CC=C(C=C1)C2=NC(=C(N2)C3=CC=NC=C3)C4=CC(=C(C=C4)Cl)O
Procedure, shortened: as §1

[7] = compound: C1=CC=C2C(=C1)C3=NNC4=CC=CC(=C43)C2=O
Procedure, shortened: as §1

[8] = compound: C1CCN(C1)C(=O)NC2=CC=CC(=C2)NC3=NC=C(C(=N3)NCCC4=CN=CN4)Br
Procedure, shortened: as §1

[9] = compound: C1CN(CCC1(CC2=CC=C(C=C2)Cl)N)C3=NC=NC4=C3C=CN4
Procedure, shortened: as §1

IRAK-1-4 Inhibitor I = compound: C1COCCN1CCN2C3=CC=CC=C3N=C2NC(=O)C4=CC(=CC=C4)[N+](=O)[O-] [IRAK-1-4 Inhibitor I]
Procedure, shortened: as §1

ibrutinib = compound: C=CC(=O)N1CCC[C@@H](n2nc(-c3ccc(Oc4ccccc4)cc3)c3c(N)ncnc32)C1 [ibrutinib]
Procedure, shortened: as §1

[10] = compound: CC(=O)c1cnc2ccc(-c3cc(Cl)c(O)c(Cl)c3)nc2c1N[C@H]1CC[C@H](CN(C)C)CC1
Procedure, shortened: as §1

ralimetinib = compound: CC(C)(C)Cn1c(N)nc2ccc(-c3[nH]c(C(C)(C)C)nc3-c3ccc(F)cc3)nc21 [ralimetinib]
Procedure, shortened: as §1

[11] = compound: CC(C)(O)CC(=O)NCCn1ccc2ncnc(Nc3ccc(Oc4cccc(C(F)(F)F)c4)c(Cl)c3)c21
Procedure, shortened: as §1

[12] = compound: CC(C)C1=C2N=C(C=C(N2N=C1)NCC3=CC=CC=C3)NCCCCCCN
Procedure, shortened: as §1

[13] = compound: CC(C)C[C@@H](C=O)NC(=O)[C@H](CC(C)C)NC(=O)[C@H](CC(C)C)NC(=O)OCc1ccccc1
Procedure, shortened: as §1

pinometostat = compound: CC(C)N(C[C@H]1O[C@@H](n2cnc3c(N)ncnc32)[C@H](O)[C@@H]1O)[C@H]1C[C@@H](CCc2nc3cc(C(C)(C)C)ccc3[nH]2)C1 [pinometostat]
Procedure, shortened: as §1

[14] = compound: CC1=C(C(CC(=O)N1)C2=CC=C(C=C2)C(F)(F)F)C(=O)NC3=C(C=C4C(=C3)C=NN4)F
Procedure, shortened: as §1

[15] = compound: CC1=C(C2=C(C=C1)C(=O)C3=CC=CC=C3N2CCCN)C
Procedure, shortened: as §1

| Target | log2 fold change (erlotinib) | log2 fold change [1] | log2 fold change [2] | log2 fold change [3] | log2 fold change [4] | log2 fold change [5] | log2 fold change [6] | log2 fold change [7] | log2 fold change [8] | log2 fold change [9] | log2 fold change (IRAK-1-4 Inhibitor I) | log2 fold change (ibrutinib) | log2 fold change [10] | log2 fold change (ralimetinib) | log2 fold change [11] | log2 fold change [12] | log2 fold change [13] | log2 fold change (pinometostat) | log2 fold change [14] | log2 fold change [15] |
| --- | --- | --- | --- | --- | --- | --- | --- | --- | --- | --- | --- | --- | --- | --- | --- | --- | --- | --- | --- | --- |
| RHAG (UniProt Q02094) | inactive: -0.003 | inactive: 0.036 | inactive: -0.025 | inactive: -0.022 | inactive: -0.086 | inactive: 0.088 | inactive: 0.218 | inactive: 0.072 | inactive: 0.015 | inactive: 0.032 | inactive: -0.005 | inactive: 0.026 | inactive: -0.019 | inactive: -0.113 | inactive: -0.099 | inactive: -0.297 | inactive: -0.043 | inactive: -0.038 | inactive: -0.027 | inactive: -0.016 |
| RBM38 (UniProt Q9H0Z9) | inactive: -0.026 | inactive: 0.091 | inactive: 0.094 | inactive: -0.019 | inactive: 0.118 | inactive: 0.138 | inactive: 0.061 | inactive: -0.076 | inactive: -0.079 | inactive: 0.065 | inactive: 0.056 | inactive: 0.083 | inactive: -0.03 | inactive: -0.052 | inactive: -0.062 | inactive: 0.033 | inactive: 0 | inactive: -0.006 | inactive: 0.011 | inactive: 0.172 |
| RFXAP (UniProt O00287) | inactive: 0.05 | inactive: 0.003 | inactive: -0.006 | inactive: 0.014 | inactive: 0.055 | inactive: 0.032 | inactive: 0.017 | inactive: -0.108 | inactive: -0.052 | inactive: 0.093 | inactive: 0 | inactive: 0.013 | inactive: -0.091 | inactive: 0.007 | inactive: 0.028 | inactive: 0.038 | inactive: 0.097 | inactive: -0.005 | inactive: 0.023 | inactive: -0.03 |
| RMDN3 (UniProt Q96TC7) | inactive: -0.002 | inactive: 0.054 | inactive: -0.034 | inactive: 0.016 | inactive: 0.045 | inactive: -0.077 | inactive: 0.013 | inactive: 0.01 | inactive: -0.03 | inactive: 0.012 | inactive: -0.048 | inactive: -0.013 | inactive: -0.076 | inactive: 0.005 | inactive: 0.033 | inactive: -0.084 | inactive: 0.027 | inactive: -0.009 | inactive: -0.012 | inactive: 0.051 |
| RNF187 (UniProt Q5TA31) | inactive: 0.095 | inactive: -0.05 | inactive: -0.061 | inactive: -0.028 | inactive: 0.101 | inactive: -0.028 | inactive: -0.067 | inactive: 0.008 | inactive: 0.017 | inactive: -0.056 | inactive: 0.059 | inactive: 0.045 | inactive: -0.124 | inactive: 0.039 | inactive: 0.024 | inactive: 0.077 | active: 0.424 | inactive: -0.075 | – | inactive: -0.226 |
| RCOR1 (UniProt Q9UKL0) | inactive: 0.033 | inactive: 0.069 | inactive: -0.043 | inactive: -0.056 | inactive: 0.134 | inactive: -0.013 | inactive: 0.076 | inactive: -0.011 | inactive: -0.006 | inactive: -0.043 | inactive: -0.037 | inactive: -0.036 | inactive: -0.14 | inactive: 0.002 | inactive: -0.08 | inactive: 0.002 | inactive: -0.034 | inactive: 0.026 | – | inactive: 0.021 |
| RIPK2 (UniProt O43353) | inactive: -0.091 | inactive: 0.055 | inactive: 0.028 | inactive: 0.048 | inactive: -0.129 | inactive: 0.042 | inactive: -0.139 | inactive: -0.007 | inactive: -0.014 | inactive: 0.063 | inactive: 0.056 | inactive: 0.102 | inactive: -0.154 | inactive: -0.035 | inactive: 0.066 | inactive: 0.037 | inactive: 0 | inactive: 0.003 | inactive: 0.002 | inactive: 0.013 |
